From the supplement of paper PMC8728848
The list shows a part of the results.

Tests used:
Assay in all cases: glycan array binding signal (z-score within array); higher = stronger binding
Details in all cases: glycan notation: IUPAC condensed, linker removed
[1] = molecular target: Gal(b1-3)GlcNAc(b1-3)Gal(b1-3)GlcNAc
Procedure, shortened: (§1)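 From the Consortium for Functional Glycomics database, 3228 arrays were curated, keeping only those whose protein sequence was available. Binding is given as a within-array Z-score averaged across arrays sharing a protein sequence and across linkers. Negative Z-scores can be read as non-binding.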

[2] = molecular target: Gal(b1-3)GlcNAc(b1-3)Gal(b1-4)Glc
Procedure, shortened: as §1

[3] = molecular target: Gal(b1-3)GlcNAc(b1-3)Gal(b1-4)GlcNAc
Procedure, shortened: as §1

[4] = molecular target: Gal(b1-3)GlcNAc(b1-3)Gal(b1-4)GlcNAc(b1-6)[Gal(b1-3)GlcNAc(b1-3)]Gal(b1-4)Glc
Procedure, shortened: as §1

[5] = molecular target: Gal(b1-3)GlcNAc(b1-3)Gal(b1-4)[Fuc(a1-3)]GlcNAc(b1-6)[Gal(b1-3)GlcNAc(b1-3)]Gal(b1-4)Glc
Procedure, shortened: as §1

[6] = molecular target: Gal(b1-3)GlcNAc(b1-3)GalNAc
Procedure, shortened: as §1

[7] = molecular target: Gal(b1-3)GlcNAc(b1-6)Gal(b1-4)GlcNAc
Procedure, shortened: as §1

[8] = molecular target: Gal(b1-3)GlcNAc(b1-6)GalNAc
Procedure, shortened: as §1

Gal(b1-3)GlcNAc6S = molecular target: Gal(b1-3)GlcNAc6S
Procedure, shortened: as §1

[9] = molecular target: Gal(b1-3)[Fuc(a1-4)]GlcNAc
Procedure, shortened: as §1

[10] = molecular target: Gal(b1-3)[Fuc(a1-4)]GlcNAc(b1-2)Man(a1-3)[Gal(b1-3)[Fuc(a1-4)]GlcNAc(b1-2)Man(a1-6)]Man(b1-4)GlcNAc(b1-4)[Fuc(a1-6)]GlcNAc
Procedure, shortened: as §1

[11] = molecular target: Gal(b1-3)[Fuc(a1-4)]GlcNAc(b1-3)Gal(b1-3)[Fuc(a1-4)]GlcNAc
Procedure, shortened: as §1

[12] = molecular target: Gal(b1-3)[Fuc(a1-4)]GlcNAc(b1-3)Gal(b1-4)GlcNAc
Procedure, shortened: as §1

[13] = molecular target: Gal(b1-3)[Fuc(a1-4)]GlcNAc(b1-3)Gal(b1-4)[Fuc(a1-3)]GlcNAc
Procedure, shortened: as §1

[14] = molecular target: Gal(b1-3)[Fuc(a1-4)]GlcNAc(b1-6)GalNAc
Procedure, shortened: as §1

[15] = molecular target: Gal(b1-3)[GlcNAc(b1-6)]GalNAc
Procedure, shortened: as §1

[16] = molecular target: Gal(b1-3)[Neu5Ac(a2-6)]GalNAc
Procedure, shortened: as §1

[17] = molecular target: Gal(b1-3)[Neu5Ac(a2-6)]GlcNAc(b1-6)Gal(b1-4)Glc
Procedure, shortened: as §1

[18] = molecular target: Gal(b1-3)[Neu5Ac(b2-6)]GalNAc
Procedure, shortened: as §1

Gal(b1-4)Gal = molecular target: Gal(b1-4)Gal
Procedure, shortened: as §1

[19] = molecular target: Gal(b1-4)GalNAc(a1-3)[Fuc(a1-2)]Gal(b1-4)GlcNAc
Procedure, shortened: as §1

[20] = molecular target: Gal(b1-4)GalNAc(b1-3)[Fuc(a1-2)]Gal(b1-4)GlcNAc
Procedure, shortened: as §1

Gal(b1-4)Glc = molecular target: Gal(b1-4)Glc
Procedure, shortened: as §1

Gal(b1-4)Glc6S = molecular target: Gal(b1-4)Glc6S
Procedure, shortened: as §1

Gal(b1-4)GlcNAc = molecular target: Gal(b1-4)GlcNAc
Procedure, shortened: as §1

[21] = molecular target: Gal(b1-4)GlcNAc(a1-6)Gal(b1-4)GlcNAc
Procedure, shortened: as §1

Gal(b1-4)GlcNAc(b1-2)Man = molecular target: Gal(b1-4)GlcNAc(b1-2)Man
Procedure, shortened: as §1

[22] = molecular target: Gal(b1-4)GlcNAc(b1-2)Man(a1-3)Man(b1-4)GlcNAc(b1-4)GlcNAc
Procedure, shortened: as §1

[23] = molecular target: Gal(b1-4)GlcNAc(b1-2)Man(a1-3)[Gal(b1-4)GlcNAc(b1-2)Man(a1-6)]Man(b1-4)GlcNAc(b1-4)GlcNAc
Procedure, shortened: as §1

[24] = molecular target: Gal(b1-4)GlcNAc(b1-2)Man(a1-3)[Gal(b1-4)GlcNAc(b1-2)Man(a1-6)]Man(b1-4)GlcNAc(b1-4)[Fuc(a1-6)]GlcNAc
Procedure, shortened: as §1

[25] = molecular target: Gal(b1-4)GlcNAc(b1-2)Man(a1-3)[Gal(b1-4)GlcNAc(b1-2)][GlcNAc(b1-4)]Man(b1-4)GlcNAc(b1-4)GlcNAc
Procedure, shortened: as §1

[26] = molecular target: Gal(b1-4)GlcNAc(b1-2)Man(a1-3)[GlcNAc(b1-2)Man(a1-6)]Man(b1-4)GlcNAc(b1-4)GlcNAc
Procedure, shortened: as §1

[27] = molecular target: Gal(b1-4)GlcNAc(b1-2)Man(a1-3)[Man(a1-6)]Man(b1-4)GlcNAc(b1-4)GlcNAc
Procedure, shortened: as §1

[28] = molecular target: Gal(b1-4)GlcNAc(b1-2)Man(a1-6)Man(b1-4)GlcNAc(b1-4)GlcNAc
Procedure, shortened: as §1

[29] = molecular target: Gal(b1-4)GlcNAc(b1-2)Man(a1-6)[GlcNAc(b1-2)Man(a1-3)]Man(b1-4)GlcNAc(b1-4)GlcNAc
Procedure, shortened: as §1

[30] = molecular target: Gal(b1-4)GlcNAc(b1-2)Man(a1-6)[Man(a1-3)]Man(b1-4)GlcNAc(b1-4)GlcNAc
Procedure, shortened: as §1

[31] = molecular target: Gal(b1-4)GlcNAc(b1-2)[Gal(b1-4)GlcNAc(b1-4)]Man(a1-3)[Gal(b1-4)GlcNAc(b1-2)Man(a1-6)]Man(b1-4)GlcNAc(b1-4)GlcNAc
Procedure, shortened: as §1

[32] = molecular target: Gal(b1-4)GlcNAc(b1-2)[Gal(b1-4)GlcNAc(b1-4)]Man(a1-3)[Gal(b1-4)GlcNAc(b1-2)[Gal(b1-4)GlcNAc(b1-6)]Man(a1-6)]Man(b1-4)GlcNAc(b1-4)GlcNAc
Procedure, shortened: as §1

B1: CALR truncated at D342 (Homo sapiens) (protein)
chain: EPAVYFKEQFLDGDGWTSRWIESKHKSDFGKFVLSSGKFYGDEEKDKGLQTSQDARFYALSASFEPFSNKGQTLVVQFTVKHEQNIDCGGGYVKLFPNSLDQTDMHGDSEYNIMFGPDICGPGTKKVHVIFNYKGKNVLINKDIRCKDDEFTHLYTLIVRPDNTYEVKIDNSQVESGSLEDDWDFLPPKKIKDPDASKPEDWDERAKIDDPTDSKPEDWDKPEHIPDPDAKKPEDWDEEMDGEWEPPVIQNPEYKGEWKPRQIDNPDYKGTWIHPEIDNPEYSPDPSIYAYDNFGVLGLDLWQVKSGTIFDNFLITNDEAYAEEFGNETWGVTKAAEKQMKD
For B1, the “glycan array binding signal (z-score)” value [1] was -0.436, the “glycan array binding signal (z-score)” value [2] was -0.183 and the “glycan array binding signal (z-score)” value [3] was -0.279. The “glycan array binding signal (z-score)” value [4] was 0.4, the “glycan array binding signal (z-score)” value [5] was -0.836 and the “glycan array binding signal (z-score)” value [6] was -0.05. For the same binder, the “glycan array binding signal (z-score)” value [7] was 0.413, the “glycan array binding signal (z-score)” value [8] was 0.022 and the “glycan array binding signal (z-score)” value (Gal(b1-3)GlcNAc6S) was -0.136. The “glycan array binding signal (z-score)” value [9] was -0.387, the “glycan array binding signal (z-score)” value [10] was 1.24 and the “glycan array binding signal (z-score)” value [11] was 0.907. For the same binder, the “glycan array binding signal (z-score)” value [12] was -1.19, the “glycan array binding signal (z-score)” value [13] was 4.2 and the “glycan array binding signal (z-score)” value [14] was 0.999. The “glycan array binding signal (z-score)” value [15] was -0.225, the “glycan array binding signal (z-score)” value [16] was -0.241 and the “glycan array binding signal (z-score)” value [17] was -0.26. The “glycan array binding signal (z-score)” value [18] was 0.075, the “glycan array binding signal (z-score)” value (Gal(b1-4)Gal) was 0.033 and the “glycan array binding signal (z-score)” value [19] was -1.26. For the same binder, the “glycan array binding signal (z-score)” value [20] was -1.75, the “glycan array binding signal (z-score)” value (Gal(b1-4)Glc) was -0.137 and the “glycan array binding signal (z-score)” value (Gal(b1-4)Glc6S) was 0.658. The “glycan array binding signal (z-score)” value (Gal(b1-4)GlcNAc) was -0.183, the “glycan array binding signal (z-score)” value [21] was -1.37 and the “glycan array binding signal (z-score)” value (Gal(b1-4)GlcNAc(b1-2)Man) was -0.346. The “glycan array binding signal (z-score)” value [22] was -0.339, the “glycan array binding signal (z-score)” value [23] was 0.293 and the “glycan array binding signal (z-score)” value [24] was -1.23. For the same binder, the “glycan array binding signal (z-score)” value [25] was 0.094, the “glycan array binding signal (z-score)” value [26] was -0.415 and the “glycan array binding signal (z-score)” value [27] was 1.03. The “glycan array binding signal (z-score)” value [28] was -0.934, the “glycan array binding signal (z-score)” value [29] was 0.351 and the “glycan array binding signal (z-score)” value [30] was -0.441. For the same binder, the “glycan array binding signal (z-score)” value [31] was 1.23 and the “glycan array binding signal (z-score)” value [32] was 0.293.
